Results on two molecules are retold here after patent publication US20160251435A1 (INHIBRX, published 2016).

By UniProt entry, the sequences of proteins in these tests, tags left out. Where a name states a change or a piece, a line headed by the entry shows the natural chain unless it says otherwise.
UniProt Q08722: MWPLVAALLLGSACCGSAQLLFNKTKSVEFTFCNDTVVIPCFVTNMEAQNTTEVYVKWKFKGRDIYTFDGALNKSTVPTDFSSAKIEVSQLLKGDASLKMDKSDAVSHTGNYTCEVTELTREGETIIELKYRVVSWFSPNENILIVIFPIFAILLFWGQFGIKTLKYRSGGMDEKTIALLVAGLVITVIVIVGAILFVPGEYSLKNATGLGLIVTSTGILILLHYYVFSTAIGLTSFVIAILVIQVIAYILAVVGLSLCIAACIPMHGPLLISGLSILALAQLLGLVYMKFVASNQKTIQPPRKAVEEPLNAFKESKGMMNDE

Results are given in words; binding and its absence hold for the method and conditions named. Some entries that bind do so weakly or less than the wild type.

Assay [1] addresses recombinant human CD47 (immobilized, hybridoma screen) (human) (UniProt Q08722). In words: blocking ELISA: hybridoma supernatant with SIRPa-ECD-Fc on immobilised recombinant CD47.
The target of assay [2] is cynomolgus monkey CD47 on cynomolgus B-cells (cynomolgus monkey). In words: flow cytometry on cynomolgus B-cells.
Assay [3] has the same target. In words: flow cytometry on cynomolgus B-cells (CD20-gated PBMC), signal normalised to the maximum of the antibody on that cell population.
Assay [4] shares this target. The assay is described as follows: flow cytometry on cynomolgus B-cells (FIG. 5).

B1: murine 9E4 antibody (antibody, mouse IgG1, V domains shown)
VH: EVQLRQSGPELVKPGASVKISCKASGYSFTDYYMYWVKQSRVRSLAWIGRINPYTGATGYDQNFKDKASLIVDKSSSTAYMELRSLTSEDSAVYYCARGRNRYDGWFAYWGQGTLVTV
VL: EIQMTQTTSSLSASLGDRVTISCRASQDISNYLNWYQQKPDGTVKLLIYYTSRLHSGVPSRFSGSGSGTDYSLTISNLDQEDIATYFCQQGNALPPTFGGGTNLEIK
As to B1, the binding result in assay [1] is listed as “binds”.

B2: murine CD47 antibody 2A1 (antibody, mouse IgG1, V domains shown)
VH: EVQLQQSGAELVRSGASVKLSCTASGFNIKDYYLHWVKQRPEQGLEWIGWIDPDNGDTEFAPKFQGKATMTADTSSNTAYLQLSSLTSEDTAVYYCNAAYGSSSYPMDYWGQGTSVTV
VL: DIKMTQSPSSLYASLGERVTITCKASQDIHRYLSWFQQKPGKSPKILIYRANRLVDGVPSRFSGSGSGQDYSLTISSLEYEDMGIYYCLQYDEFPYTFGGGTKLEMK
notes: Hybridoma-derived mouse IgG1; also called 2A1-mIgG1; 2A1mIgG1
As to B2, the binding entry in assay [2], in assay [3] and in assay [4] was “binds” in each case.
